Measurements as given in PubChem BioAssay AID1439 (NMMLSC, 2008).
Where “and” joins values, the source holds several entries; their conditions need not be identical. Identical values can stand only once. In all, about 220,000 compounds went through this assay and about 770 (0.35%) were called active. Inconclusive means that the source gave no clear call. Such entries were picked first, then a sample of the others. No stated cut-off is given here; in the data, active means binding response below about 49% or above about 150%; inconclusive means no clear call, values can overlap the other calls; inactive means in between.

Amino acid sequences for entries named in this document (tags omitted).
UniProt P09471, whole entry, looked up: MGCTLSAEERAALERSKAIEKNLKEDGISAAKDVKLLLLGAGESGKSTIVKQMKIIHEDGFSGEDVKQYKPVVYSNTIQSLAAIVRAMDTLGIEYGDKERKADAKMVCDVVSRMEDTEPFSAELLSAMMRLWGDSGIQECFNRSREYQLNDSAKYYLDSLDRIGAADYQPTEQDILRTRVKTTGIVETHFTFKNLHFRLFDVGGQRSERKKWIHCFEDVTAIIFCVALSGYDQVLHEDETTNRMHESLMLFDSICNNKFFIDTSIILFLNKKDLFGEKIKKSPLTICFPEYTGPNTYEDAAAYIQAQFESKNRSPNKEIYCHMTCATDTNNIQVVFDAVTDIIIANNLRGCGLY

Each compound was assayed against Guanine nucleotide-binding protein G(o) subunit alpha (Homo sapiens) (UniProt P09471) (assay: RGS7-Galphao binding modulators, primary screen, biochemical, multiplexed bead flow cytometry (AID 1439;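 further: fluorescent Galphao held in activated GDP-AlF4 state binding bead-coupled RGS7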)). Details: at 10 µM, actives lie on both sides.

Structure (SMILES) | binding response (% of control)
NS(=O)(=O)c1ccc(CCNC(=O)C2CCC(Cn3c(=S)[nH]c4ccccc4c3=O)CC2)cc1 (stereo unspecified) | active: 16.7%
O=C(COc1ccccc1)N1CCN(c2ccc([N+](=O)[O-])c(N3CCCCC3)c2)CC1 | inactive: 117%
CCOC(=O)/C=C(\C)Sc1cc(O)c2ccccc2c1O | inconclusive: 224%
CN(Cc1cc(-c2ccccc2)on1)C(=O)c1cc(COc2c(F)cccc2F)on1 | inactive: 102%
OCCCN1CCN(CCCOc2ccccc2-c2ccccc2)CC1 | inactive: 110%
CC(C)CNC(=O)CCCc1ccccc1 | inactive: 95.3%
CC1=CC2=NC(=O)CC(C)(C(=O)N(CC(=O)NC3CCCC3)c3cc(C)cc(C)c3)N2C=C1 (stereo unspecified) | inconclusive: 101%
Cc1ccc(N2C(=O)C3ON(c4ccccc4)C(CC(C)C)C3C2=O)cc1 (stereo unspecified) | inconclusive: 75.7%
Cc1cccc(C)c1NC(=O)CCCSc1nnc(N)s1 | inconclusive: 126%
CC(=O)NS(=O)(=O)c1cccnc1Nc1cccc(Cl)c1C | inactive: 98.9%
O=C(N/N=C/c1cc([N+](=O)[O-])ccc1O)c1c[nH]c2ccccc12 | inconclusive: 61.4%
CC(=O)c1c(C)[nH]c(C(=O)NCc2ccco2)c1C | inactive: 101%
Cc1cccc(OCc2nnc(SCc3cc(=O)[nH]c4ccccc34)n2-c2ccccc2)c1 | inactive: 103%
CCS(=O)(=O)Nc1cccc(-c2nc3cccnc3s2)c1 | inconclusive: 110%
O=C(O)c1ccccc1-n1ncc2c1/C(=C/c1ccc(Cl)cc1)CC2 | inconclusive: 99.6%
O=C(O)c1cccc(-c2ccc(/C=N/Nc3ccc([N+](=O)[O-])cc3)o2)c1 | inconclusive: 86.6%
NC(N)=NC(N)=Nc1ccc2ccccc2c1 | inactive: 98.7%
CC1(/[N+]([O-])=C/c2ccc(F)cc2)CCCCC1=O (stereo unspecified) | inconclusive: 80.2%
CCn1c(CCCc2ccc(OC)c(C)c2)n[nH]c1=S | inconclusive: 98.8%
CC1CCN(c2c(NCC3CCC(C(=O)NCc4ccc(F)cc4)CC3)c(=O)c2=O)CC1 (stereo unspecified) | inconclusive: 89.7%
Cn1c(N)c(C(=O)/C=C/c2ccccc2)c(=O)[nH]c1=O | inconclusive: 130%
COC(=O)C1=C(C)Nc2nc3ccccc3n2C1c1ccccc1F (stereo unspecified) | inconclusive: 111%
NC1=NC(c2ccc(Cl)cc2)N(c2ccc(S(N)(=O)=O)cc2)C(N)=N1 (stereo unspecified) | inconclusive: 99.9%

Structure (SMILES) | binding response (% of control)
O=C(NCc1cccnc1)C(=O)N/N=C/c1ccc([N+](=O)[O-])cc1 | inconclusive: 103%
S=C1NCN(Cc2cccnc2)CN1 | inconclusive: 74%
CC(Sc1nnc2ccccn12)C(=O)Nc1ccc2c(c1)OCO2 (stereo unspecified) | inconclusive: 73.5%
CC1CC(C)CN(S(=O)(=O)c2ccc3c(c2)n(C)c(=O)c(=O)n3C)C1 (stereo unspecified) | inconclusive: -34.2%
CN(NC1CC(=O)N(c2ccccc2)C1=O)c1ccccc1 (stereo unspecified) | inactive: 97.9%
CC(C)n1c(NCCO)nc2ccccc21 | active: 37.3%
CS(=O)(=O)N1CCc2cc(C(=O)N3CCCC3)ccc21 | inactive: 104%
Cc1ccc2c(c1)N(C(C)C(=O)NCc1ccc3c(c1)OCO3)C(=O)CO2 (stereo unspecified) | inconclusive: 108%
Oc1ccc2ccccc2c1N=Nc1ccc(F)cc1 | inconclusive: 159% and inconclusive: 79.7%
Cc1cc(C)cc(NC(=O)Nc2ccc3ccccc3n2)c1 | inconclusive: 93.7%
Cc1ccc(-n2nc(-c3ccco3)cc2C(=O)O)cc1 | inconclusive: 92.6%
COCCCNc1nnc(Cc2ccccc2)c2ccccc12 | inconclusive: 87.7%
CCn1cc(C(=O)O)c(=O)c2cc(F)c(N3CCN(C(=S)NC(=O)c4ccccc4C)CC3)cc21 | inconclusive: 114%
Cc1ccc(NC(=O)Cn2nc(C)c(S(=O)(=O)N(C)C)c2C)cc1 | inconclusive: 129%
Cc1nc2ccccn2c1C(=O)NNS(=O)(=O)c1ccc(Cl)cc1 | inconclusive: 266%
O=C(O)c1ccccc1C(=O)Nc1cccc([N+](=O)[O-])c1 | inconclusive: 71.5%
COC(=O)c1c(-c2ccccc2)csc1NC(=O)C1CC=CCC1C(=O)O (stereo unspecified) | inconclusive: 130%
CCN(CC)c1ccc(C(=O)N/N=C(\C)c2ccc(OC)c(OC)c2)cc1 | inactive: 99.7%
CC/C(=N\NC(N)=O)c1ccc(OC)c(OC)c1 | inconclusive: -423%
Nc1nnc(SCc2nc3scc(-c4ccccc4)c3c(=O)[nH]2)s1 | inconclusive: 95.6%
COc1ccc(C)cc1S(=O)(=O)N1CCCCCC1 | inconclusive: 96.6%
Fc1ccc(Oc2nnnn2-c2ccccc2)cc1 | inconclusive: 79.2%
COc1ccc(C(=O)N2CCN(S(=O)(=O)c3ccc(C)cc3)CC2)cc1S(=O)(=O)N1CCOCC1 | inconclusive: 108%

Structure (SMILES) | binding response (% of control)
COc1cc(C(CC(=O)N2CCCC2)c2c(OC)cc(OC)c3ccc(=O)oc23)cc(OC)c1OC (stereo unspecified) | inconclusive: 91.8%
CCOC(=O)CN1C(=O)CCSc2ccc(Cl)cc21 | inconclusive: 108%
CC1=C(C(=O)O)N2C(=O)C(NC(=O)c3nn(C)cc3[N+](=O)[O-])C2SC1 (stereo unspecified) | inconclusive: 103%
CCOC(=O)/C=C(\C)Nc1cc(C)nn1-c1ccccc1 | active: 10.8%
O=C1CS/C(=N\N=C\c2ccccc2Cl)N1CC1CC1 | inconclusive: 76.9%
COc1ccc(C[C@H]2CN3C(=NC[C@@H]3Cc3ccc(O)cc3)N2C[C@H](C)NC(=O)c2ccc(C)c(Br)c2)cc1 | inconclusive: 94.6%
COc1ccc(/C=C/C(=O)NC(=S)NNC(=O)c2ccco2)cc1OC | inconclusive: 103%
C/C=C/C=C/C(=O)[C@@H]1[C@@H]([C@]2(C)OC(=O)C(C)=C2O)[C@H]2/C(=C(O)/C=C/C=C/C)C(=O)[C@]1(C)C(=O)C2(C)O (stereo partly specified) | inconclusive: 74.8%
O=C(COc1ccccc1Cl)NCCCN1CCOCC1 | inactive: 105%
COc1ccc(C(C(=O)NC2CCCC2)N(CC2CCCO2)C(=O)Cn2nnc(-c3ccc(C)o3)n2)cc1 (stereo unspecified) | inconclusive: 126%
Cc1cc(C)n(CCC(=O)N=Nc2c(O)[nH]c3ccc(Br)cc23)n1 | inconclusive: 78.8%
CC(=O)Nc1ccc(S(=O)(=O)Nc2ccc(C(=O)NCC(=O)O)cc2)cc1 | inconclusive: 75.3%
COc1ccccc1NC(=O)c1c(C)nc2ccccc2c1C(=O)O | inconclusive: 113%
NC(=S)c1cc2cc(Cl)ccc2oc1=O | inconclusive: 120%
COCCCNC(=S)Nc1cccc(S(=O)(=O)NC2=NCCC2)c1 | inconclusive: 114%
C=CCN1C(=O)/C(=c2\sc3nc(=O)c(Cc4ccccc4)nn3c2=O)c2ccccc21 | inconclusive: 136%
CCc1nccn1CCC(=O)N1CCc2c([nH]c3ccccc23)C1CC(C)C (stereo unspecified) | inconclusive: 93.4%
CCCNC(=O)c1ccccc1NC(=O)c1ccc(CSc2ccccc2)cc1 | inactive: 101%
CC1CCCC(C)N1S(=O)(=O)c1ccc(S(=O)(=O)NCc2ccccc2)cc1 (stereo unspecified) | inactive: 92%
Fc1ccc(CSc2ncnc3ccccc23)cc1 | inconclusive: 95.7%
C/C(=N\NC(=O)Cc1c(C)[nH][nH]c1=O)c1cccc(Br)c1 | inconclusive: 104%
CN1CCc2c(sc(/N=C/c3cc(Cl)ccc3O)c2C#N)C1 | inconclusive: 110%
O=C(C[n+]1cccc(CNC(=O)c2ccc(OC(F)F)cc2)c1)Nc1ccc(F)cc1 | inactive: 121%

Structure (SMILES) | binding response (% of control)
Cc1cc(NC(=O)c2c(-c3c(F)cccc3Cl)noc2C)no1 | inconclusive: 157%
Cc1cccc(C)c1NC(=O)CSc1nnc(NC(=O)c2ccccc2C(=O)O)s1 | inconclusive: 88.8%
Nc1ccccc1Sc1cc(Cl)nnc1Cl | inconclusive: 400%
CCOC(=O)c1sc(NC(=O)C2CC2)cc1C | inactive: 99.6%
O=C(NCc1csc2ccccc12)Nc1cc(Cl)cc(Cl)c1 | inconclusive: 115%
CC(=O)c1sc2nc(-c3cccs3)cc(C(F)(F)F)c2c1N | inactive: 100%
C=CCNC(=S)NCc1cccnc1 | inactive: 112%
FC(F)Oc1ccccc1/C=N/n1cnc2ccccc21 | inactive: 98.6%
CC(C)C(=O)NC(NC(=S)Nc1ccc(S(N)(=O)=O)cc1)C(Cl)(Cl)Cl (stereo unspecified) | inactive: 102%
O=C(NCc1ccc(Cl)cc1)c1ccc(N2CCCC2=O)cc1 | inactive: 92.3%
Cn1ncc(Cl)c1C(=O)NC1C2CC3CC(C2)CC1C3 (stereo unspecified) | inactive: 98.1%
CC(=O)C1=NN(c2ccccc2)C2(S1)S/C(=C\c1ccccc1)C(=O)N2c1ccccc1 (stereo unspecified) | inactive: 107%
O=C(O)c1ccccc1Nc1ccc([N+](=O)[O-])cc1C(=O)O | inconclusive: 69.8%
Nc1cc(C(F)(F)F)ccc1Nc1ccccc1 | inconclusive: 99.9%
O=C(O)CC1S/C(=N/N=C/c2ccc([N+](=O)[O-])cc2)N(c2ccc(O)cc2)C1=O (stereo unspecified) | inactive: 112%
Nc1ncnc(Nc2ccc(F)c(Cl)c2)n1 | inconclusive: 98.2%
C=CCn1c(-c2cccnc2)n[nH]c1=S | inactive: 106%
CCCCC(CC)C(=O)N1CCN(C(=O)c2ccco2)CC1 (stereo unspecified) | inactive: 107%
O=C(CCC(=O)c1ccccc1)NCCOc1ccccc1 | inconclusive: 109%
S=C(NCc1cccnc1)Nc1cc(Cl)cc(Cl)c1 | inconclusive: 105%
O=C(Nc1ccc(F)cc1)c1ccc(CSc2ccc(Cl)cc2)o1 | inconclusive: 167%
CN(/N=C/c1ccc(O)cc1O)c1ncc(C(F)(F)F)cc1Cl | inconclusive: 127%
